Source: patent US20030194736

What was measured:
Test in all cases: enzyme reaction in vitro
[1] = test system: N.BstNBI nicking endonuclease; settings: in plasmid pNEB200A; 10 mM MgCl2, 150 mM KCl, 55 C; purified recombinant protein; protein details: New England Biolabs; only the site is given
[2] = test system: XbaI restriction endonuclease; settings: purified recombinant protein, protein details: New England Biolabs, only the site is given
[3] = test system: USER Enzyme (UDG + EndoVIII mixture); settings: deoxyuridine at position 16 (n) of top strand [n positions 16 = modified dU]; 10 pmol substrate nicked to completion by 0.2 unit UDG + at least 31.25 ng EndoVIII; 15 min 37 C, T4 ligase buffer, 10 mM MgCl2; purified recombinant protein; protein details: New England Biolabs; label: fluorescein at 5' and 3' ends of top strand
[4] = test system: USER Enzyme 2 (UDG + FPG mixture); settings: deoxyuridine at position 16 (n) of top strand [n positions 16 = modified dU]; 10 pmol substrate nicked to completion by 0.1 unit UDG + at least 145 ng FPG (290 ng in figure legend); 15 min 37 C, 10 mM MgCl2; purified recombinant protein; label: fluorescein at 5' and 3' ends of top strand
[5] = target: T1, BamHI restriction endonuclease (UniProt P23940); settings: NEBuffer 4, 37 C, purified recombinant protein, protein details: New England Biolabs, only the site is given
T1 sequence (looked up, limits assumed): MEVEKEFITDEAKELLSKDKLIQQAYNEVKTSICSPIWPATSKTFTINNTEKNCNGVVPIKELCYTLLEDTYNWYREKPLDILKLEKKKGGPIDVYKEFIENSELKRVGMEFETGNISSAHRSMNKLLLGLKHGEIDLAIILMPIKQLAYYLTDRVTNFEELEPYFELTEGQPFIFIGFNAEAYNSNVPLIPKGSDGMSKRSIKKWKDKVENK

## ACGAGACTCTAGAGGATCCTCTAGAGTCTGGT (double strand) [pNEB200A cassette]
[1]
  activity on this sequence: active
[2]; in plasmid pNEB200A, 10 mM MgCl2, 150 mM KCl, 37 C
  activity on this sequence: active

## GATTTCATTTTTATTTATAACTTTACTTATATTG (double strand) [34-bp duplex with single dU:dA]
[3]
  activity on this sequence: active
[4]
  activity on this sequence: active

## GCTGAGGGAAAGTCTAGATGTCTCCTCAGC (double strand) [pNEB205A cassette]
[2]; in plasmid pNEB205A, NEBuffer 4, 10 mM Mg acetate, 37 C
  activity on this sequence: active

## GCTGAGGGGGGGATCCTTTTCATGGATCCCCCCCTCAGC (double strand) [pUC-TT cassette]
[5]; in plasmid pUC-TT
  activity on this sequence: active

## GCTGAGGGGGGGATCCTTTTCATTCTAGATGTCTCCTCAGC (double strand) [pNEB210A cassette]
[5]; in plasmid pNEB210A
  activity on this sequence: active
[2]; in plasmid pNEB210A, NEBuffer 4, 37 C
  activity on this sequence: active

For some assays here: Tags and fusion partners may be left off the protein sequences shown. For some assays here: For at least one entry, the source does not settle the construct or the ends of the probe.
